Data taken from the supplement of paper PMC4604168 (melanoma cell lines).
The list shows a part of the results. Many values rest on one well or one pass, so single values are uncertain.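 Imaging used 1,536-well plates; nuclei positive for cleaved PARP by antibody were divided by total DNA-stained nuclei to yield the apoptosis fraction. Doses for screening kept most cells viable, and cell lines differ markedly in resting and induced cleaved-PARP levels.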

system: UACC62; experiment: cleaved PARP positive nuclei fraction relative to DMSO control; melanoma cells; higher = more apoptosis; conditions: library dose: low library concentration; 72 h

| SMILES | cleaved PARP positive nuclei fraction |
| --- | --- |
| CCc1ccc(CCOc2ccc(CC3SC(=O)NC3=O)cc2)nc1 (stereo unspecified) [pioglitazone] + CCCCCCCCCCCC1=C(O)C(=O)C=C(O)C1=O [Embelin] (first compound 2 µM, partner dose 1.2 µM) | 68.2% |
| CN(C)S(=O)(=O)c1ccc2c(c1)/C(=C/c1cc3c([nH]1)CCCC3)C(=O)N2 + c1cc(-c2cnn3cc(-c4ccc(OCCN5CCCCC5)cc4)cnc23)ccn1 [Dorsomorphin] (first compound 0.4 µM, partner dose 0.4 µM) | 241% |
| O=C(Nc1ccccc1)c1cc([N+](=O)[O-])ccc1Cl + O=c1cc(-c2cccc3c2Sc2ccccc2S3)oc(N2CCOCC2)c1 [KU55933] (first compound 2 µM, partner dose 1 µM) | 33% |
| COc1cc2ncnc(Nc3ccc(Oc4ccccc4)cc3)c2cc1OC + O=C(O)C(=O)Nc1sc2c(c1C(=O)O)CCNC2 [TCS401] (first compound 2 µM, partner dose 1.66667 µM) | 57% |
| COc1ccc(-c2ccc3c(N4CCOCC4)nc(N4C[C@@H](C)O[C@@H](C)C4)nc3n2)cc1CO + Oc1nc(-c2ccc(C(F)(F)F)cc2)nc2c1CSCC2 [XAV939] (first compound 0.02 µM, partner dose 2 µM) | 44% |
| CN(NC(=O)CC(=O)NN(C)C(=S)c1ccccc1)C(=S)c1ccccc1 + CCc1ccc(CCOc2ccc(CC3SC(=O)NC3=O)cc2)nc1 [pioglitazone] (first compound 0.006 µM, partner dose 2 µM) | 191% |

Two entries from above, tab-delimited:
SMILES	cleaved PARP positive nuclei fraction
COc1ccc(-c2ccc3c(N4CCOCC4)nc(N4C[C@@H](C)O[C@@H](C)C4)nc3n2)cc1CO + Oc1nc(-c2ccc(C(F)(F)F)cc2)nc2c1CSCC2 [XAV939] (first compound 0.02 µM, partner dose 2 µM)	44%
CN(NC(=O)CC(=O)NN(C)C(=S)c1ccccc1)C(=S)c1ccccc1 + CCc1ccc(CCOc2ccc(CC3SC(=O)NC3=O)cc2)nc1 [pioglitazone] (first compound 0.006 µM, partner dose 2 µM)	191%
